Assay results as given in the supplement of paper PMC10849652.
The other results are listed elsewhere or left out.

By UniProt entry, the sequences of proteins in these tests, tags left out. Where a name states a change or a piece, a line headed by the entry shows the natural chain unless it says otherwise.
UniProt Q00765: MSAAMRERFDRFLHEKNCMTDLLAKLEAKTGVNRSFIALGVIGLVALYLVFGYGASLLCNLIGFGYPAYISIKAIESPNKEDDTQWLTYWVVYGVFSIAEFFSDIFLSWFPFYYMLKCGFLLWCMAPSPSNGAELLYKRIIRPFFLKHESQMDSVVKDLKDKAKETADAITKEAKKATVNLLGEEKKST
UniProt P40938, whole entry, looked up: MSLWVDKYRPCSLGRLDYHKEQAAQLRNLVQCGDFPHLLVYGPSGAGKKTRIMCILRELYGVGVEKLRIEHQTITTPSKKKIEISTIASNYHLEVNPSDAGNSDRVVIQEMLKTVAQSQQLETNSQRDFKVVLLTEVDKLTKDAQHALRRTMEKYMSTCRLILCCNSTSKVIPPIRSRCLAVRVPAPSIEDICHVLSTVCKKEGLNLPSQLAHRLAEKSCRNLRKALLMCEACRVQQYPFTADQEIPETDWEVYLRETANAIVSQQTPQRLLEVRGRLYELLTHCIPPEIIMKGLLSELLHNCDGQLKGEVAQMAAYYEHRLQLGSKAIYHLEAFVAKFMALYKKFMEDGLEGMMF
UniProt Q15293: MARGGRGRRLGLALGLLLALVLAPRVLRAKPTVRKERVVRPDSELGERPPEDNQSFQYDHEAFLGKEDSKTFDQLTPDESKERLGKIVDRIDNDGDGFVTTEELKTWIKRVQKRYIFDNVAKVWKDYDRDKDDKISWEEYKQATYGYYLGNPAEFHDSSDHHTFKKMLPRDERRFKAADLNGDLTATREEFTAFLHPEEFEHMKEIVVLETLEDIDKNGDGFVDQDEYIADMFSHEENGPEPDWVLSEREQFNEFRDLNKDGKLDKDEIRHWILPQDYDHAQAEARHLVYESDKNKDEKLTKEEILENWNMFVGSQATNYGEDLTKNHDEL
UniProt Q9P2R6: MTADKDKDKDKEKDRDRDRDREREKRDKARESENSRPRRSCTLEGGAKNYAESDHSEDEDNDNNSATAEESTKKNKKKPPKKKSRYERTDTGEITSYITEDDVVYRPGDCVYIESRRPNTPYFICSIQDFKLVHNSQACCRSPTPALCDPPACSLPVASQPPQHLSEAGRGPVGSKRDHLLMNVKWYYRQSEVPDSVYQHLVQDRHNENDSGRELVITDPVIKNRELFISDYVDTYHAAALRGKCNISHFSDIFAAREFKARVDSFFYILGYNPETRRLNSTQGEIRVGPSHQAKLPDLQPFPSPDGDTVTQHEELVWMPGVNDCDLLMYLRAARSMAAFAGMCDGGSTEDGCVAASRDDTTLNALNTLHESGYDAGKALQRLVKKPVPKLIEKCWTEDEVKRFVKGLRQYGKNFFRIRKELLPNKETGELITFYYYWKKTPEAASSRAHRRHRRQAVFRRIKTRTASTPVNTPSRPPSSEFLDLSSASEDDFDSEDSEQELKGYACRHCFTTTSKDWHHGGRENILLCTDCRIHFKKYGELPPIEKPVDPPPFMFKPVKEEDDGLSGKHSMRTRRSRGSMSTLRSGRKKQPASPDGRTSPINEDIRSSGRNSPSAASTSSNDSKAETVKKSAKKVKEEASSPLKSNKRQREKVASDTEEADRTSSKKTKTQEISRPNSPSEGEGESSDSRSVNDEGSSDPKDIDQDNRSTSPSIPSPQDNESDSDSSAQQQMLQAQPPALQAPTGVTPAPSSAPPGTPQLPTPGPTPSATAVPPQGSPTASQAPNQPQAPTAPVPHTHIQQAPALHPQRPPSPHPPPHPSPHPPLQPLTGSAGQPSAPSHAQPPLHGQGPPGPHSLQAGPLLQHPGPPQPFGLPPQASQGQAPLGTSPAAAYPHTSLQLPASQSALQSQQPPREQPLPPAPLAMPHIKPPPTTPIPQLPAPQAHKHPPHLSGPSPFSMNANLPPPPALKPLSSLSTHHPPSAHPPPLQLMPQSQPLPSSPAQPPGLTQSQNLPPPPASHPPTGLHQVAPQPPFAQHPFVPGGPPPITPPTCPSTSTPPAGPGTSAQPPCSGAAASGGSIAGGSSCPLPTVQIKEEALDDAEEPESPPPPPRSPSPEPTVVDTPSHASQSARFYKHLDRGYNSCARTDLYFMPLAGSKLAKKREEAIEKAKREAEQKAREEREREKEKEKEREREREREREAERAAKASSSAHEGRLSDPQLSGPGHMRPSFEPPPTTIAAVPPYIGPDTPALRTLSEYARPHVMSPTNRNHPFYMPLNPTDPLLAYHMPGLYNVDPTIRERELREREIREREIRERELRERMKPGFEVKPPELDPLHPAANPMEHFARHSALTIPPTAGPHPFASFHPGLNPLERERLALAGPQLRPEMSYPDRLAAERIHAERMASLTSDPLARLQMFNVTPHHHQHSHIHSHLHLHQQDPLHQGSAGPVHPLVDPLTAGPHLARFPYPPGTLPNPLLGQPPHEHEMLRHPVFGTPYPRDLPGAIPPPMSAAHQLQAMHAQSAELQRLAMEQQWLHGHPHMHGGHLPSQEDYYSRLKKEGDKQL
UniProt Q8TAC1: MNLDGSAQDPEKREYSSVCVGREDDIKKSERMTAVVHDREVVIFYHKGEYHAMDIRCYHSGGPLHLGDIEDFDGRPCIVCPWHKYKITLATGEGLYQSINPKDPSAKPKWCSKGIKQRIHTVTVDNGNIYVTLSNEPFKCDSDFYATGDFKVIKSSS
UniProt P40937, whole entry, looked up: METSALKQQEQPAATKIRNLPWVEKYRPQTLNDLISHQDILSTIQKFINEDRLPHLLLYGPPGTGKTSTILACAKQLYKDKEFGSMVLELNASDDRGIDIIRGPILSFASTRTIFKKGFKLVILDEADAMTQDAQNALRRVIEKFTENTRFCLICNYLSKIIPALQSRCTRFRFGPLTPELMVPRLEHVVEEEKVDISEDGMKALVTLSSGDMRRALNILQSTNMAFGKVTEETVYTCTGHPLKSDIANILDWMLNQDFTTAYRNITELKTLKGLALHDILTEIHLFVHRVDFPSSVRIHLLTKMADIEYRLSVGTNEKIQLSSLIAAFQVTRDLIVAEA
UniProt Q9Y256: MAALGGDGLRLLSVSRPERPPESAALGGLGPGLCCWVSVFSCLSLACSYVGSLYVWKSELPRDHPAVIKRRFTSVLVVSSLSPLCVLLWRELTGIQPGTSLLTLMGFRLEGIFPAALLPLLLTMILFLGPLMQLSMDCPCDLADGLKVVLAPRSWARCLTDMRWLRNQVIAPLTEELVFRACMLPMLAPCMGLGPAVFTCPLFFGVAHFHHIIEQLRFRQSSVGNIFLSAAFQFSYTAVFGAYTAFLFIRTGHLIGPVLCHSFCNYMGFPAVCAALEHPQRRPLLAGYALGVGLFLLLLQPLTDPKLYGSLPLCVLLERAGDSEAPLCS
UniProt O15258: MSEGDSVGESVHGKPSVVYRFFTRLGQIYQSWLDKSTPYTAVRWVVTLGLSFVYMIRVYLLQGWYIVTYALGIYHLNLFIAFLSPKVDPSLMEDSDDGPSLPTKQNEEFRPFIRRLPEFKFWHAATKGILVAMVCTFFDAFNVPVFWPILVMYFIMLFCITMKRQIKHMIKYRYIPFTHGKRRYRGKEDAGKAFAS
UniProt Q8IZV5: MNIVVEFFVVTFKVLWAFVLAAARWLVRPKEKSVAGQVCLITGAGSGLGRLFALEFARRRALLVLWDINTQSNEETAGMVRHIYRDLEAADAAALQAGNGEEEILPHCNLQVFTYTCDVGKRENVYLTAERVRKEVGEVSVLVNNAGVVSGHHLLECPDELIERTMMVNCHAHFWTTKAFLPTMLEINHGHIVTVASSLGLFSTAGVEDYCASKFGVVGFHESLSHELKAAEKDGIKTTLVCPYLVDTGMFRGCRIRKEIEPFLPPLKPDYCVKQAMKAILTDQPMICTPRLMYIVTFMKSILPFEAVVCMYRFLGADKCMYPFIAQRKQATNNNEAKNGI
UniProt P78332: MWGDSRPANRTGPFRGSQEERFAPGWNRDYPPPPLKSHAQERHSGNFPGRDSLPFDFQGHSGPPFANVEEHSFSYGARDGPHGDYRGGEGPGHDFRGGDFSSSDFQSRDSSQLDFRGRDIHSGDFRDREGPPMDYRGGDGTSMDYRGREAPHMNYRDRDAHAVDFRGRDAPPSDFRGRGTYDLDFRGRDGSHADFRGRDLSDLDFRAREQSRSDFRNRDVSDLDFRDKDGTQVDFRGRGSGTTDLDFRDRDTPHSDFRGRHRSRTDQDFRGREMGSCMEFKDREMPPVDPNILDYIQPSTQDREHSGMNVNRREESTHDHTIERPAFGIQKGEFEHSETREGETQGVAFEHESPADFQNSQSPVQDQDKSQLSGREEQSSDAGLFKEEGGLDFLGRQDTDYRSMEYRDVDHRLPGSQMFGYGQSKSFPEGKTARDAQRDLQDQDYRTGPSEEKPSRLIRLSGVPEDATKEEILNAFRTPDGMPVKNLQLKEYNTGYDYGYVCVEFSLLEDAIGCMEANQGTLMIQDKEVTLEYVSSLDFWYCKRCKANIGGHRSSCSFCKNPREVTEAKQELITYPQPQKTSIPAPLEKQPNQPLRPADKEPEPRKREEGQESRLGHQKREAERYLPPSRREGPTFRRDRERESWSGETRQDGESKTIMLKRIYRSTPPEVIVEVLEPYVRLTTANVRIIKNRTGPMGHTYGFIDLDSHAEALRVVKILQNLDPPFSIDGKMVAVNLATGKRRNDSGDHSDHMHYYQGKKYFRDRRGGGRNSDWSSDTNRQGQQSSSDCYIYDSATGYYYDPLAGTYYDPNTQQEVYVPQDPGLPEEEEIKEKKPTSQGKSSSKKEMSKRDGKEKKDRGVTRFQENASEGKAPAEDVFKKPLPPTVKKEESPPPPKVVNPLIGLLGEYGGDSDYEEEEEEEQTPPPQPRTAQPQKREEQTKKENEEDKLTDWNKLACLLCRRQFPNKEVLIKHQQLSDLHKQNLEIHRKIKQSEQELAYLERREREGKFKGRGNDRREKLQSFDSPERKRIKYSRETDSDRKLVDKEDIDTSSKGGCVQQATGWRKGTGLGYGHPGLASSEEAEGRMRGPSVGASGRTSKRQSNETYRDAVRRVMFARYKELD
UniProt P42696: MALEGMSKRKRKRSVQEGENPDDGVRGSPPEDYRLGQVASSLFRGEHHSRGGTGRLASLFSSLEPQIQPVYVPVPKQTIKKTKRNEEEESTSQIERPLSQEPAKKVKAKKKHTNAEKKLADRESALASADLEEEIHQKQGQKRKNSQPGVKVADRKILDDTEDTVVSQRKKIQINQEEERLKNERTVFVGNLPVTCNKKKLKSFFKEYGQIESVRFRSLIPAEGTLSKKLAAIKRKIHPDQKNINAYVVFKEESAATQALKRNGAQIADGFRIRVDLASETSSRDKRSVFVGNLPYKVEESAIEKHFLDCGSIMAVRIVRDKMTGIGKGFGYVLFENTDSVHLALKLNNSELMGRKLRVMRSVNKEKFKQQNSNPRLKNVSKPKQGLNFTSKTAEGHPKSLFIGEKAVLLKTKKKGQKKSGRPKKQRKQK
UniProt Q9GZR2: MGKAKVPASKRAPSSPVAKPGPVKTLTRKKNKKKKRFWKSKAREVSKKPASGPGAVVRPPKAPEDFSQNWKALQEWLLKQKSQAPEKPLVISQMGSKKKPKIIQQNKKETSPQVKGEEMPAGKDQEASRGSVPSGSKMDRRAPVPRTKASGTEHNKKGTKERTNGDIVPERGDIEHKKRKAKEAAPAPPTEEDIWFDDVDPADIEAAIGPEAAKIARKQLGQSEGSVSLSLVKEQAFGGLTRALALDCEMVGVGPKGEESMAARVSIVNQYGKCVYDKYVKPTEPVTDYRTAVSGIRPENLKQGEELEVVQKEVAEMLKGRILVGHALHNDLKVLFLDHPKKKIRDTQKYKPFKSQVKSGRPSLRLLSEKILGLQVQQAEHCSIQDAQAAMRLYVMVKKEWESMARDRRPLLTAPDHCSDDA
UniProt Q9HBH5: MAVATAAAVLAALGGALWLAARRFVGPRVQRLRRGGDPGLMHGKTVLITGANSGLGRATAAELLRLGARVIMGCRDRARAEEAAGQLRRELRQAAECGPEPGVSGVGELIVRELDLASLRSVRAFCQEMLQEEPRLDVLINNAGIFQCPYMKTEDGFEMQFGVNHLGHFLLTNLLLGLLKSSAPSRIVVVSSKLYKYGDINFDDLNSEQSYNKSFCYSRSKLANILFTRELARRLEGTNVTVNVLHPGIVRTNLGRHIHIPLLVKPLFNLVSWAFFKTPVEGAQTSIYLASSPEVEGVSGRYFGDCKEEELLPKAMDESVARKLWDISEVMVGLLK
UniProt Q9BWF3: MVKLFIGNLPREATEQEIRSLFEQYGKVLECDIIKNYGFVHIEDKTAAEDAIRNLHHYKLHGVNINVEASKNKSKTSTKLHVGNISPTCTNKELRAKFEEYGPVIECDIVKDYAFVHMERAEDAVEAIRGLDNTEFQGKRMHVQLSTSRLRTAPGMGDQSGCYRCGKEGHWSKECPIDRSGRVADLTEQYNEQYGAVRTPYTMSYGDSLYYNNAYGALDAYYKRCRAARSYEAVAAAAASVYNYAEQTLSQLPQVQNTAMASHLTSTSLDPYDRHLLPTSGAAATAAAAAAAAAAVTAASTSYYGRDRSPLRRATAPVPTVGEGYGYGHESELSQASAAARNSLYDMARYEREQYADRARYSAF

What was measured:
Test in all cases: log2 fold change, soluble protein after heating vs DMSO (PISA); higher = thermal stabilisation; K562 lysate, 10 uM; active = over 0.2 and 3.5 SD of the protein, either way, in both replicates (recomputed)
[1] = compound: CCCS(=O)(=O)Nc1ccc(F)c(C(=O)c2c[nH]c3ncc(-c4ccc(Cl)cc4)cc23)c1F [vemurafenib]
Method in brief: (§1)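 Following dounce homogenisation of K562 pellets in PBS pH 7.4 with 1 mM MgCl2, crude extract at 1 mg/mL protein was incubated for 30 min with 10 μM compound. Aliquots were then heated for 3 min over 48°C-58°C and pooled, NP-40 was added to 0.5% at 4°C, and soluble protein was recovered as the supernatant at 21,000xg for 90 min. Channel-sum-equalised TMTpro 16plex LC-MS/MS quantified this protein. Each value, from duplicates, is a log-two fold change in thermal stability relative to solvent controls.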

[2] = compound: CCCS(=O)(=O)Nc1ccc(F)c(C(=O)c2c[nH]c3ncc(Cl)cc23)c1F
Method in brief: as §1

[3] = compound: CCN(CCCOc1ccc2c(Nc3cc(CC(=O)Nc4cccc(F)c4)[nH]n3)ncnc2c1)CCOP(=O)(O)O [barasertib]
Method in brief: as §1

[4] = compound: CC[C@@H]1C(=O)N(C)c2cnc(Nc3ccc(C(=O)NC4CCN(C)CC4)cc3OC)nc2N1C1CCCC1
Method in brief: as §1

[5] = compound: CC[C@@H]1C(=O)N(C)c2cnc(Nc3ccc(C(=O)N[C@H]4CC[C@H](N5CCN(CC6CC6)CC5)CC4)cc3OC)nc2N1C(C)C [volasertib]
Method in brief: as §1

[6] = compound: CCn1c(C(=O)N(C2CC2)C2CC2)cc2c3c(ncn3C)c(Nc3cc(C)n(C)n3)nc21
Method in brief: as §1

[7] = compound: CCn1cc(-c2ccnc3[nH]c(-c4cccc(CN(C)C)c4)cc23)c(-c2ccc(NC(=O)N(C)C)cc2)n1
Method in brief: as §1

[8] = compound: CN1CCC(CNc2ccc3ncc(-c4cccc(OC(F)(F)F)c4)n3n2)CC1
Method in brief: as §1

[9] = compound: CN1CCN(CCOc2cc(OC3CCOCC3)c3c(Nc4c(Cl)ccc5c4OCO5)ncnc3c2)CC1 [saracatinib]
Method in brief: as §1

[10] = compound: CN1CCN(c2nc(C3=C(c4c[nH]c5ccccc45)C(=O)NC3=O)c3ccccc3n2)CC1 [sotrastaurin]
Method in brief: as §1

Target	log2 fold change [1]	log2 fold change [2]	log2 fold change [3]	log2 fold change [4]	log2 fold change [5]	log2 fold change [6]	log2 fold change [7]	log2 fold change [8]	log2 fold change [9]	log2 fold change [10]
RBBP7 isoform 2 (UniProt Q16576)	inactive: -0.064	inactive: -0.007	inactive: -0.042	inactive: -0.057	inactive: 0.022	inactive: 0.047	active: -0.274	inactive: 0.088	inactive: 0.001	inactive: 0.032
RBM15 (UniProt Q96T37)	inactive: 0.064	inactive: 0.077	inactive: 0.155	inactive: 0.131	inactive: 0.001	inactive: -0.156	inactive: -0.063	inactive: 0.074	inactive: 0.024	inactive: -0.029
RGPD5 (UniProt Q99666)	inactive: -0.098	inactive: 0.032	inactive: 0.052	inactive: 0.074	inactive: 0.046	inactive: 0.042	inactive: 0.701	inactive: -0.024	inactive: 0.012	inactive: 0.009
RCAN1 (UniProt P53805)	inactive: 0.028	inactive: 0.061	inactive: 0.034	inactive: -0.022	inactive: -0.026	inactive: -0.06	inactive: -0.024	inactive: 0.041	inactive: 0.025	inactive: -0.056
RCCD1 (UniProt A6NED2)	inactive: -0.165	inactive: -0.003	inactive: -0.059	inactive: 0.049	inactive: 0.023	inactive: 0.039	inactive: -0.01	inactive: 0.053	inactive: 0.014	inactive: -0.047
REEP5 (UniProt Q00765)	inactive: -0.008	inactive: -0.006	inactive: -0.008	inactive: 0.073	inactive: 0.023	inactive: 0.027	inactive: -0.051	inactive: 0.026	inactive: 0.017	inactive: -0.02
RCN3 (UniProt Q96D15)	inactive: 0.038	inactive: 0.084	inactive: 0.07	inactive: -0.009	inactive: -0.015	inactive: 0.008	inactive: -0.126	inactive: 0.091	inactive: 0.033	inactive: -0.09
RFC3 (UniProt P40938)	inactive: 0.021	inactive: 0.025	inactive: 0.046	inactive: -0.033	inactive: -0.065	inactive: 0.013	inactive: 0.133	inactive: 0.001	inactive: 0.001	inactive: 0.039
RBM17 (UniProt Q96I25)	inactive: 0.002	inactive: 0.033	inactive: 0.006	inactive: 0.007	inactive: -0.012	inactive: 0.012	inactive: 0.049	inactive: -0.101	inactive: -0.008	inactive: -0.027
RCOR3 isoform 3 (UniProt Q9P2K3)	inactive: -0.03	inactive: -0.01	inactive: -0.003	inactive: -0.001	inactive: -0.012	inactive: 0.029	inactive: -0.017	inactive: 0.003	inactive: 0.03	inactive: -0.015
RARS2 (UniProt Q5T160)	inactive: 0.021	inactive: 0	inactive: 0.082	inactive: -0.016	inactive: -0.081	inactive: -0.011	inactive: -0.058	inactive: -0.174	inactive: -0.006	inactive: 0.003
RCN1 (UniProt Q15293)	inactive: 0.028	inactive: 0	inactive: -0.002	inactive: 0.021	inactive: 0.021	inactive: -0.012	inactive: -0.013	inactive: -0.015	inactive: 0.044	inactive: 0.038
RERE (UniProt Q9P2R6)	inactive: 0.296	inactive: 0.051	inactive: 0.065	inactive: -0.065	inactive: -0.057	inactive: 0.039	inactive: -0.31	inactive: 0.212	inactive: 0.057	inactive: 0.035
RFESD isoform 2 (UniProt Q8TAC1)	inactive: 0.043	inactive: 0.03	inactive: -0.022	inactive: 0.024	inactive: -0.002	inactive: -0.004	inactive: 0.029	inactive: 0.032	inactive: 0.027	inactive: -0.071
RBL1 (UniProt P28749)	inactive: 0.084	inactive: 0.082	inactive: 0.049	inactive: 0.061	inactive: 0.006	inactive: 0	inactive: -0.034	inactive: 0.091	inactive: -0.118	inactive: -0.084
RFC5 (UniProt P40937)	inactive: 0.034	inactive: -0.003	inactive: -0.017	inactive: -0.039	inactive: -0.079	inactive: 0.022	inactive: 0.137	inactive: 0.005	inactive: 0.008	inactive: 0.043
RCE1 (UniProt Q9Y256)	inactive: -0.097	inactive: -0.046	inactive: 0.017	inactive: 0.001	inactive: -0.123	inactive: -0.067	inactive: -0.182	inactive: 0.045	inactive: -0.038	inactive: 0.113
RER1 (UniProt O15258)	inactive: -0.021	inactive: -0.008	inactive: 0.021	inactive: 0.061	inactive: 0.049	inactive: -0.002	inactive: -0.141	inactive: 0.035	inactive: -0.031	inactive: 0.026
RDH10 (UniProt Q8IZV5)	inactive: 0.054	inactive: 0.032	inactive: 0.027	inactive: -0.011	inactive: 0.035	inactive: -0.072	inactive: -0.067	inactive: 0.062	inactive: -0.035	inactive: -0.006
RBM6 (UniProt P78332)	inactive: -0.013	inactive: -0.047	inactive: 0.007	inactive: 0.015	inactive: -0.021	inactive: 0.047	inactive: -0.011	inactive: 0.032	inactive: 0.046	inactive: -0.009
RBM34 (UniProt P42696)	inactive: -0.038	inactive: 0.038	inactive: 0.054	inactive: -0.046	inactive: -0.026	inactive: -0.032	inactive: 0.008	inactive: -0.07	inactive: 0.007	inactive: -0.018
REEP6 (UniProt Q96HR9)	inactive: 0.072	inactive: 0.021	inactive: 0.093	inactive: -0.022	inactive: 0.077	inactive: 0	active: -0.358	inactive: 0.072	inactive: 0.094	inactive: 0.017
REXO4 (UniProt Q9GZR2)	inactive: -0.018	inactive: 0.007	inactive: 0.088	inactive: 0.013	inactive: -0.034	inactive: 0	active: 0.452	inactive: -0.184	inactive: -0.002	inactive: 0.013
RDH13 (UniProt Q8NBN7)	inactive: -0.017	inactive: 0.038	inactive: 0.032	inactive: -0.085	inactive: -0.038	inactive: 0.054	inactive: -0.128	inactive: -0.172	inactive: 0.013	inactive: -0.046
REXO2 (UniProt Q9Y3B8)	inactive: 0.003	inactive: -0.039	inactive: -0.029	inactive: -0.006	inactive: 0.017	inactive: -0.012	inactive: 0.077	inactive: -0.02	inactive: -0.001	inactive: -0.011
RDH14 (UniProt Q9HBH5)	inactive: 0.038	inactive: 0.026	inactive: -0.007	inactive: -0.076	inactive: -0.022	inactive: 0.009	inactive: -0.228	inactive: 0.061	inactive: -0.015	inactive: 0.074
RBM4 (UniProt Q9BWF3)	inactive: -0.013	inactive: -0.042	inactive: 0.023	inactive: -0.053	inactive: -0.032	inactive: 0.045	active: 0.344	inactive: -0.044	inactive: -0.013	inactive: -0.015

Copied from the list.
RCN1 (UniProt Q15293) | log2 fold change [2]: inactive: 0
RFC3 (UniProt P40938) | log2 fold change [3]: inactive: 0.046

Complete entries from above. Values in the order: log2 fold change [1]	log2 fold change [2]	log2 fold change [3]	log2 fold change [4]	log2 fold change [5]	log2 fold change [6]	log2 fold change [7]	log2 fold change [8]	log2 fold change [9]	log2 fold change [10]
RER1 (UniProt O15258) is entered as inactive: -0.021	inactive: -0.008	inactive: 0.021	inactive: 0.061	inactive: 0.049	inactive: -0.002	inactive: -0.141	inactive: 0.035	inactive: -0.031	inactive: 0.026
RARS2 (UniProt Q5T160) is entered as inactive: 0.021	inactive: 0	inactive: 0.082	inactive: -0.016	inactive: -0.081	inactive: -0.011	inactive: -0.058	inactive: -0.174	inactive: -0.006	inactive: 0.003
